Experimental data reported in the supplement of paper PMC12067093, “Discovery and optimisation of a covalent ligand for TRIM25 and its application to targeted protein ubiquitination” (Chemical Science, 2025).
The list shows a part of the results.

Chains of the proteins cited; added tags and fusions are not shown. Lines headed by an entry give the natural chain unless they say otherwise; changes in a name come on top.
UniProt Q00796: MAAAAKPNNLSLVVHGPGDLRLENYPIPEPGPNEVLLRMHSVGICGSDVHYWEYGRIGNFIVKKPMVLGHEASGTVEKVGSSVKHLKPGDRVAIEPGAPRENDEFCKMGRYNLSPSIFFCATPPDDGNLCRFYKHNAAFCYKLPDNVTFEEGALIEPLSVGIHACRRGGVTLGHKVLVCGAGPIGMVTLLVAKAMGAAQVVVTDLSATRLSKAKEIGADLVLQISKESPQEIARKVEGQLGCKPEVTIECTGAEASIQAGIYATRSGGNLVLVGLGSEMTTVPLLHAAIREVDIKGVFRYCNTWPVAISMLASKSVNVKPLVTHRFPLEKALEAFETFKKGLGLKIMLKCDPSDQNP
UniProt O15270: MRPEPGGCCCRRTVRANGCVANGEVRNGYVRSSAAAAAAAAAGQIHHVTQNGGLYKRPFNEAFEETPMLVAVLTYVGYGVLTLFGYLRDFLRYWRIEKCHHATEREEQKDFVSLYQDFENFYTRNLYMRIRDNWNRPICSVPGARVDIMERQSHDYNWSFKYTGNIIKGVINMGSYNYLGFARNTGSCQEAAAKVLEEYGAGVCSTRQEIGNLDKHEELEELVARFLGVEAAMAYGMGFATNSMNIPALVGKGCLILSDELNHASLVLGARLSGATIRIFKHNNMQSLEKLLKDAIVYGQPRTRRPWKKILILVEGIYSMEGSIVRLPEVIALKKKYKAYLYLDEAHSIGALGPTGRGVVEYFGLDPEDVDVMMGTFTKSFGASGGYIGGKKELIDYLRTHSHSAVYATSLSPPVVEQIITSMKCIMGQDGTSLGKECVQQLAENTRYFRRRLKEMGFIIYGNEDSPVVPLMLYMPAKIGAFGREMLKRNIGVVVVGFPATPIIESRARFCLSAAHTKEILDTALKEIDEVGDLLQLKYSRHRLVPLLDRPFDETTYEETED
UniProt O60271: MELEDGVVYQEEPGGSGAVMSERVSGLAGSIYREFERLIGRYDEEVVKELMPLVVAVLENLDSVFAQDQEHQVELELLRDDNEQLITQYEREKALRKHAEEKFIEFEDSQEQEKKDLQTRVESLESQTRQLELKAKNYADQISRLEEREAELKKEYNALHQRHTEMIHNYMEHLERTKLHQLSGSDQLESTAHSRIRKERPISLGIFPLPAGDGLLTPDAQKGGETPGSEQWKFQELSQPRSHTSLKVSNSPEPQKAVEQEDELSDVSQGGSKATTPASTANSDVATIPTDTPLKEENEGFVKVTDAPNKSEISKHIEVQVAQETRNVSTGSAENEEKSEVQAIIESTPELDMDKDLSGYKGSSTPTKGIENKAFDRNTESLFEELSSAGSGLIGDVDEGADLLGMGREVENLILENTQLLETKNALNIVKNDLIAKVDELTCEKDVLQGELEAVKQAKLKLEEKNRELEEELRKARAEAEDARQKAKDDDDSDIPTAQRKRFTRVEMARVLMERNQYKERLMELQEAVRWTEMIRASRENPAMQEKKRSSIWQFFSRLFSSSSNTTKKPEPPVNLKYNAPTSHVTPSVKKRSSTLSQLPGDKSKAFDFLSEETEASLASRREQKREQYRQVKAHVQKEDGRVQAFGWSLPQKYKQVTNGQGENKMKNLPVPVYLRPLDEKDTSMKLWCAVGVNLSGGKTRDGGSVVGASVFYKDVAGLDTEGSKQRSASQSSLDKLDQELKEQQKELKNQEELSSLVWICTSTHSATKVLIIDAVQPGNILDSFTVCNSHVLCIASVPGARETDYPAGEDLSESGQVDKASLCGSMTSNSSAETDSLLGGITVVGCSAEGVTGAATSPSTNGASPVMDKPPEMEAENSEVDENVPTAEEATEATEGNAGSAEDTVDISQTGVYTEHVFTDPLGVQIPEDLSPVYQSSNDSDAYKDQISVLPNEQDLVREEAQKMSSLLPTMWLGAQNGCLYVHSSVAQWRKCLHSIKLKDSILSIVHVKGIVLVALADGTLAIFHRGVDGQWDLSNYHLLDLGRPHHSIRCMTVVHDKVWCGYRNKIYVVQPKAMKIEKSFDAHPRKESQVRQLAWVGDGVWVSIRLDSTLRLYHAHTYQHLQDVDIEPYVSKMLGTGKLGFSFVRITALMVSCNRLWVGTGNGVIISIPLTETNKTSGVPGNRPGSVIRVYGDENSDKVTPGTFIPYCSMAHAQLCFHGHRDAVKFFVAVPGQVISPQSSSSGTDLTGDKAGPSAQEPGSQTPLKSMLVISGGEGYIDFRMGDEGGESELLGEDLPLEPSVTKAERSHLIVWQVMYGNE
UniProt P18583: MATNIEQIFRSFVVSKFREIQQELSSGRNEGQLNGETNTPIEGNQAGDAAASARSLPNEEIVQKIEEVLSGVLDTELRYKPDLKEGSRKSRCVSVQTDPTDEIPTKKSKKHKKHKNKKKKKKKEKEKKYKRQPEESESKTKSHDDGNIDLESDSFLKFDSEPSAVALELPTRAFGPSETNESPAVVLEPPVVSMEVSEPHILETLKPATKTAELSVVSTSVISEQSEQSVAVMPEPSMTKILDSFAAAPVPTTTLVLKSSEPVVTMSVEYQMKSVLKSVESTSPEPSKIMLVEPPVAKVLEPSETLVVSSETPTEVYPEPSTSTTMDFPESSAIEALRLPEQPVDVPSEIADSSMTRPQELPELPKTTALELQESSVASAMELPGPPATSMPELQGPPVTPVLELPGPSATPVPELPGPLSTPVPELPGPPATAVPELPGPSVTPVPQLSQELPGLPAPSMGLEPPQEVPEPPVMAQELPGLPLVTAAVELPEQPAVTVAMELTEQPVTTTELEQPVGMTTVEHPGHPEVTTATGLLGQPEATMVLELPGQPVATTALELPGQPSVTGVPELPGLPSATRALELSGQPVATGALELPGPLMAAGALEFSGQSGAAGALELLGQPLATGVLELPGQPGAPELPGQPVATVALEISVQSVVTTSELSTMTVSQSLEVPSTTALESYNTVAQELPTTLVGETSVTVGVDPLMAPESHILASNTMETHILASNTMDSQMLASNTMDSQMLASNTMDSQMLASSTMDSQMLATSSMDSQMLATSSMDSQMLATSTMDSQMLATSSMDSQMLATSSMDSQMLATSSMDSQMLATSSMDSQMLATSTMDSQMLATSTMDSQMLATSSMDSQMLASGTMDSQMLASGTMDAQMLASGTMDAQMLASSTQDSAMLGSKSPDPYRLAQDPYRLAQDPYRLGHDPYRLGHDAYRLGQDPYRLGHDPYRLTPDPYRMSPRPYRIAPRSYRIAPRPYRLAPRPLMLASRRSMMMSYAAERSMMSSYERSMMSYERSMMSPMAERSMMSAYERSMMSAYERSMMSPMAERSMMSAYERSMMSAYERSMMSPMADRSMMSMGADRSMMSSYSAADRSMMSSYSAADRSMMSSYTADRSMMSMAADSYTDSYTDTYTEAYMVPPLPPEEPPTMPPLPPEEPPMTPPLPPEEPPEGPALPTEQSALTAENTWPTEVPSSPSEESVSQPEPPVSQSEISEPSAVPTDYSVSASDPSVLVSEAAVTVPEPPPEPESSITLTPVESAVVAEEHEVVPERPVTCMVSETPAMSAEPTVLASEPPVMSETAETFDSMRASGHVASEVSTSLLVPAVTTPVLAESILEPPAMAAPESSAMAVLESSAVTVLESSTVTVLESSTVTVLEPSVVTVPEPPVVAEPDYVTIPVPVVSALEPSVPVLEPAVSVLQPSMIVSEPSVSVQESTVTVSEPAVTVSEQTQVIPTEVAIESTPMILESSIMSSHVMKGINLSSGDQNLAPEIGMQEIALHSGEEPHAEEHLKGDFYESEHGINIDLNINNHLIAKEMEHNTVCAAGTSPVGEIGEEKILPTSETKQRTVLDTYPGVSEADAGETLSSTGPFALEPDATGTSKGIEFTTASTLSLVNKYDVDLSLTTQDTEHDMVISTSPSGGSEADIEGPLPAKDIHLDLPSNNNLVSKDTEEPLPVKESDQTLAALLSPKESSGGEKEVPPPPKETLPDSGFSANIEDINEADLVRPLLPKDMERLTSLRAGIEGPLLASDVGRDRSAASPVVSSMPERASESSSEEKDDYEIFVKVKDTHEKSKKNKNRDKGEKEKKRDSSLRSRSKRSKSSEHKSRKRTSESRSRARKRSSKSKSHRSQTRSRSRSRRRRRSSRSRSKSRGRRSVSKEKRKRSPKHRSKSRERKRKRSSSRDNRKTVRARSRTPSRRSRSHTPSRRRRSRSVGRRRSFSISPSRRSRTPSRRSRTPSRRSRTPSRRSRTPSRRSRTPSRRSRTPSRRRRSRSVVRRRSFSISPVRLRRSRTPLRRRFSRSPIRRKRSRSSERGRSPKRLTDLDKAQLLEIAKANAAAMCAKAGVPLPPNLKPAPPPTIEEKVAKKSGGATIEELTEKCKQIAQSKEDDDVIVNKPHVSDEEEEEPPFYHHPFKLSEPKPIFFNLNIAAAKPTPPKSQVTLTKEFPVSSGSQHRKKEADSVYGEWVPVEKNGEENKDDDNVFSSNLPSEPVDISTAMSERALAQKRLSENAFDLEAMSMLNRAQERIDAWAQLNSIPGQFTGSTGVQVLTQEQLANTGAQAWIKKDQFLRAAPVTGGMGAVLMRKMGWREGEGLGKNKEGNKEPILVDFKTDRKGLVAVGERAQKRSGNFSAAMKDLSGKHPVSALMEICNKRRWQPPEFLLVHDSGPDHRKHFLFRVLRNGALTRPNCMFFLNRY
UniProt Q8N5C6: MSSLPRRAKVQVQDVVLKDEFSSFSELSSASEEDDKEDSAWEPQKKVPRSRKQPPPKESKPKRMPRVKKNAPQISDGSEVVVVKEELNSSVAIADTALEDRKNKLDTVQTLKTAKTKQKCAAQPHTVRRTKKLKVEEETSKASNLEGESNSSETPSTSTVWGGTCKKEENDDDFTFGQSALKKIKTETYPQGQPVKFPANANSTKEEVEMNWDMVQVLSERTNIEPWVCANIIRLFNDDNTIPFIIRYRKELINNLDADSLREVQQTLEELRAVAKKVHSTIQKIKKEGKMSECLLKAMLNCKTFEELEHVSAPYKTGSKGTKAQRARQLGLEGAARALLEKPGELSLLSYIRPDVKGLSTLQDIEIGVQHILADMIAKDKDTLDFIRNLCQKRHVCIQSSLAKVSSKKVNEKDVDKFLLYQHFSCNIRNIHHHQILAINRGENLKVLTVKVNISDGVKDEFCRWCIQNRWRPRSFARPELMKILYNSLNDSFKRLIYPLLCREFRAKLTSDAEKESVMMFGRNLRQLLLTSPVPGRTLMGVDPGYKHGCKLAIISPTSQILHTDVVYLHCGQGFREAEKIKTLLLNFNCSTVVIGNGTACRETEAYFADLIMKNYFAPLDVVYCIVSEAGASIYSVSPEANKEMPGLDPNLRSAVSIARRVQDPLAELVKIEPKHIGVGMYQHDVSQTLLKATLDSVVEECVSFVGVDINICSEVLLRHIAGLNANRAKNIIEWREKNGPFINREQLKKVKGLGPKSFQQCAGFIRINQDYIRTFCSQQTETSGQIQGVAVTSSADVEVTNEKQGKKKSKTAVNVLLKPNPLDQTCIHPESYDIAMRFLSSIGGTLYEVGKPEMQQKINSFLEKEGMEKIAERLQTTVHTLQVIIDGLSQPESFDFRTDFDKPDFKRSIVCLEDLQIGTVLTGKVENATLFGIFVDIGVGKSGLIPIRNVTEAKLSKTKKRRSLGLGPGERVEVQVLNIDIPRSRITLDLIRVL
UniProt P30626: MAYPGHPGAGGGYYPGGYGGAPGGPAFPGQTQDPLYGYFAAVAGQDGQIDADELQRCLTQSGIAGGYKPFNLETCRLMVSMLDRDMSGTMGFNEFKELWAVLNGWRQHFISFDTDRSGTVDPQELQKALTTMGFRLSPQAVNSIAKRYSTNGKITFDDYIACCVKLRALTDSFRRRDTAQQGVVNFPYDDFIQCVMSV
UniProt Q9UHB9: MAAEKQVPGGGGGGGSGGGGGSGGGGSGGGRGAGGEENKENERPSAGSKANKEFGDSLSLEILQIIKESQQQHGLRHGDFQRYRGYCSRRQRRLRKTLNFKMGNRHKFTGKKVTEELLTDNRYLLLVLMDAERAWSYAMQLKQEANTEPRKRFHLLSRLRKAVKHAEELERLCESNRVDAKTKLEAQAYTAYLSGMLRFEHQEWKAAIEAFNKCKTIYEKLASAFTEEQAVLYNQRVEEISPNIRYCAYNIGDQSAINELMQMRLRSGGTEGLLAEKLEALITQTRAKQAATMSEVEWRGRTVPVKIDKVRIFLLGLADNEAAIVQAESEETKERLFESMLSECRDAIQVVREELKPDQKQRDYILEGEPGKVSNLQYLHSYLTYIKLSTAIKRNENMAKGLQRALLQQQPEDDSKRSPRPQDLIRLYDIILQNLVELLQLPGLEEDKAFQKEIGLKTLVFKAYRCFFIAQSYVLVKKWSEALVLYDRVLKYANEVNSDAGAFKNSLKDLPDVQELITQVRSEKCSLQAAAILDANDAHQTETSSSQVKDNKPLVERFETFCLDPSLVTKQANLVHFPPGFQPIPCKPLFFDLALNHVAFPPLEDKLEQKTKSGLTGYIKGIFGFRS

Compound: CC1Cc2ccccc2N1C(=O)C1CCCN(C1)C(=O)CCl (mixture of isomers) [TRIM25 ligand 11 (diastereomer mixture)]
Experiment: probe-labelled cysteine peptide fold change vs DMSO (competition) (log2 fold change); higher = less target engagement (more negative = stronger competition)
Conditions: THP-1, incubation time: 4 h
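Note: competitive chemoproteomic profiling in live THP-1 cells with an iodoacetamide desthiobiotin (IA-DTB) probe, comparing probe-labelled peptide intensities in compound-treated cells against DMSO-treated controls.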

| Target | probe-labelled cysteine peptide fold change (10 µM) | probe-labelled cysteine peptide fold change (50 µM) |
| --- | --- | --- |
| SP110_Q9HB58_283_CIWSTPK (UniProt Q9HB58) | -0.0816 | -0.2 |
| SORD_Q00796_350_CDPSDQNP (UniProt Q00796) | -0.0424 | -0.0486 |
| SPRYD3_Q8NCJ5_147_IGCGIEPVSFDVQTAQIFFTK (UniProt Q8NCJ5) | -0.137 | -0.375 |
| SPTLC2_O15270_438_ECVQQLAENTR (UniProt O15270) | -0.0248 | 0.043 |
| SRM_P19623_89_DEFSYQEMIANLPLCSHPNPR (UniProt P19623) | 0.193 | -0.0109 |
| SPR_P35270_10_AVCLLTGASR (UniProt P35270) | -0.0764 | 0.0366 |
| SP3_Q02447_628_KQHICHIPGCGK (UniProt Q02447) | -0.482 | -0.259 |
| SPEN_Q96T58_877_NRLELMPCVVLTR (UniProt Q96T58) | -0.0652 | -0.00885 |
| SREBF2_Q12772_787_ESLYCAQR (UniProt Q12772) | -0.0085 | 0.243 |
| SPAG9_O60271_1210_VTPGTFIPYCSMAHAQLCFHGHR (UniProt O60271) | 0.413 | 0.532 |
| SPECC1_Q5M775_598_DLLELSCNELRQELLK (UniProt Q5M775) | -0.45 | -0.243 |
| SPATA5L1_Q9BVQ7_104_LLLVPCPPLRR (UniProt Q9BVQ7) | -0.0644 | 0.126 |
| SNX14_Q9Y5W7_593_IPVFCIDVER (UniProt Q9Y5W7) | 0.3 | 0.776 |
| SON_P18583_1551_EMEHNTVCAAGTSPVGEIGEEK (UniProt P18583) | 0.0276 | -0.264 |
| SPATA5L1_Q9BVQ7_78_RDGADGFVQLDPLCASPGAAVGASR (UniProt Q9BVQ7) | 0.0287 | 0.405 |
| SNU13_P55769_102_ACGVSRPVIACSVTIK (UniProt P55769) | -0.00857 | 0.0527 |
| SORD_Q00796_301_YCNTWPVAISMLASK (UniProt Q00796) | 0.311 | -0.116 |
| SPDL1_Q96EA4_490_EETQSCPNSLEDNNLQLEK (UniProt Q96EA4) | 0.0497 | -0.157 |
| SNX12_Q9UMY4_141_CLHMFLQEEAIDR (UniProt Q9UMY4) | -0.0267 | -0.0364 |
| SPPL2B_Q8TCT7_45_DYCILYNPQWAHLPHDLSK (UniProt Q8TCT7) | -0.0202 | -0.138 |
| SORL1_Q92673_1484_TCIPNWK (UniProt Q92673) | -0.112 | -0.239 |
| SPAG5_Q96R06_907_TEQETLLLSTACPPTQEHPLPNDR (UniProt Q96R06) | 0.146 | -0.116 |

| Target | probe-labelled cysteine peptide fold change (10 µM) | probe-labelled cysteine peptide fold change (50 µM) |
| --- | --- | --- |
| SNX27_Q96L92_519_VFCELK (UniProt Q96L92) | 0.0222 | 0.295 |
| SOWAHD_A6NJG2_109_LCLEPR (UniProt A6NJG2) | -0.0136 | 0.102 |
| SRBD1_Q8N5C6_120_CAAQPHTVR (UniProt Q8N5C6) | 0.0057 | -0.0692 |
| SPAG9_O60271_689_LWCAVGVNLSGGK (UniProt O60271) | -0.234 | -0.00744 |
| SRI_P30626_194_RDTAQQGVVNFPYDDFIQCVMSV (UniProt P30626) | 0.2 | -0.0123 |
| SNX6_Q9UNH7_149_KTVAMHEVFLCR (UniProt Q9UNH7) | -0.161 | -0.257 |
| SRP68_Q9UHB9_586_QANLVHFPPGFQPIPCK (UniProt Q9UHB9) | -0.137 | 0.0373 |
| SNX27_Q96L92_432_TCEGYNEIIFPHCACDSR (UniProt Q96L92) | 0.135 | -0.0106 |
| SNX27_Q96L92_513_IFTPYFNYMHECFER (UniProt Q96L92) | 0.0211 | 0.164 |
| SNX9_Q9Y5X1_399_CEAVGK (UniProt Q9Y5X1) | 0.0851 | -0.0622 |
| SRP19_P09132_3_ACAAAR (UniProt P09132) | -0.114 | 0.533 |
| SRBD1_Q8N5C6_165_ASNLEGESNSSETPSTSTVWGGTCK (UniProt Q8N5C6) | -0.137 | -0.158 |
| SPG7_Q9UQ90_353_GALLLGPPGCGK (UniProt Q9UQ90) | 0.0394 | -0.00155 |
| SRP68_Q9UHB9_173_LCESNR (UniProt Q9UHB9) | 0.14 | 0.559 |
| SON_P18583-2_2133_DLMANATCFR (UniProt P18583) | 0.0436 | -0.0517 |
| SPTBN1_Q01082_2227_SWHNVYCVINNQEMGFYK (UniProt Q01082) | 0.112 | 0.0328 |
| SREK1IP1_Q8N9Q2_18_CGYPGHLTFECR (UniProt Q8N9Q2) | 0.108 | 0.0817 |
| SRI_P30626_57+75_CLTQSGIAGGYKPFNLETCR (UniProt P30626) | -0.187 | -0.141 |
| SQSTM1_Q13501_131_NMVHPNVICDGCNGPVVGTR (UniProt Q13501) | -0.133 | 0.0255 |
| SPTBN1_Q01082_619+624_VAHMEFCYQELCQLAAER (UniProt Q01082) | 0.0536 | -0.262 |
| SPTAN1_Q13813_1454_MMLDQCLELQLFHRDCEQAENWMAAR (UniProt Q13813) | -0.0646 | 0.00333 |

Single values from the list.
Entry of SRBD1_Q8N5C6_165_ASNLEGESNSSETPSTSTVWGGTCK (UniProt Q8N5C6) under probe-labelled cysteine peptide fold change (50 µM): -0.158
Entry of SNX27_Q96L92_519_VFCELK (UniProt Q96L92) under probe-labelled cysteine peptide fold change (50 µM): 0.295
